Results are given in words; binding and its absence hold for the method and conditions named. Some results given as binding are weak or reduced against the parent protein; the word gives no strength.
T1: human DR3 with the death domain deleted (ΔM339-P417 of SEQ ID NO:1), expressed on CHOK1SV cells (human) (UniProt Q93038)
T1 sequence: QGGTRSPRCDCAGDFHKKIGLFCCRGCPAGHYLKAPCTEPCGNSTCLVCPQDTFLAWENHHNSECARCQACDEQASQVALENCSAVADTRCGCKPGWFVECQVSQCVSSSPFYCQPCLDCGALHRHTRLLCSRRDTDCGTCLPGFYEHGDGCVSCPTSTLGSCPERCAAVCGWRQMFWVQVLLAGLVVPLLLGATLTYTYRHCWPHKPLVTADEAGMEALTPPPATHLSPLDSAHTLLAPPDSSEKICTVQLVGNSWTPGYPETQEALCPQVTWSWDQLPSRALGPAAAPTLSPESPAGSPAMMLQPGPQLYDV


Legend:
[1] = molecular target: T1, human DR3 with the death domain deleted (ΔM339-P417 of SEQ ID NO:1), expressed on CHOK1SV cells (human); test: flow cytometry (FACSArray), inhibition of hTL1A binding to membrane bound DR3, titration 0.01 to 25 µg/ml; blocked ligand hTL1A
[2] = molecular target: T1, human DR3 with the death domain deleted (ΔM339-P417 of SEQ ID NO:1), expressed on CHOK1SV cells (human); test: flow cytometry, inhibition of TL1A binding to DR3 expressing cells, 2 µg/ml Ab; blocked ligand TL1A-flag tag
[3] = molecular target: T1, human DR3 with the death domain deleted (ΔM339-P417 of SEQ ID NO:1), expressed on CHOK1SV cells (human); test: flow cytometry, mean fluorescence on DR3 expressing cells, 2 µg/ml Ab

Binder	binding [1]	binding [2]	binding [3]
0072 (murine mAb purified from hybridoma 27F44A2) (antibody, mouse IgG1, V domains shown) VH: EVKLVESGGGLVKPGGSLKLSCSASGFAFSNYDMSWVRQTPEKRLEWVAAFSSDGYTFYPDSLKGRFTISRDNARNTLYLQMSSLGSEDTALYCCARHADYANYPVMDYWGQGTSVTVSS VL: DIVLAQSPASLLVSLGQRATISCRASKSVSTSGYSYMHWYQQKPGQPPKLLIYLASNLESGVPARFSGSGSGTDFTLNIHPVEEEDAATYYCQHSRELPLTFGAGTMLELKR	binds	binds	binds
0087 (Fab from papain cleavage of mAb 0072) (Fab, V domains shown) VH: EVKLVESGGGLVKPGGSLKLSCSASGFAFSNYDMSWVRQTPEKRLEWVAAFSSDGYTFYPDSLKGRFTISRDNARNTLYLQMSSLGSEDTALYCCARHADYANYPVMDYWGQGTSVTVSS VL: DIVLAQSPASLLVSLGQRATISCRASKSVSTSGYSYMHWYQQKPGQPPKLLIYLASNLESGVPARFSGSGSGTDFTLNIHPVEEEDAATYYCQHSRELPLTFGAGTMLELKR	binds	–	–
0073 (murine mAb purified from hybridoma 28F26A3) (antibody, V domains shown) VH: EVKVVESGGGLVKPGGSLKLSCAASGFVFSSYDMSWVRQIPEKRLEWVAAISSGDYYTYYPDSVKGRFTISRDDARNTLYLQMSSLRSEDTALYYCARHRGGNYPQYAMDYWGQGTSVTVSS VL: DILLTQSPASFAVSLGQRATISCRASKSVSTSGYNYIHWYQQKPGQPPKLLIYLTSNLESGVPARFSGSGSGTDFTLNIHPVEEEDAATYYCQHSRELPFTFGSGTKLEIKR	binds	binds	binds
0088 (Fab from papain cleavage of mAb 0073) (Fab, V domains shown) VH: EVKVVESGGGLVKPGGSLKLSCAASGFVFSSYDMSWVRQIPEKRLEWVAAISSGDYYTYYPDSVKGRFTISRDDARNTLYLQMSSLRSEDTALYYCARHRGGNYPQYAMDYWGQGTSVTVSS VL: DILLTQSPASFAVSLGQRATISCRASKSVSTSGYNYIHWYQQKPGQPPKLLIYLTSNLESGVPARFSGSGSGTDFTLNIHPVEEEDAATYYCQHSRELPFTFGSGTKLEIKR	binds	–	–
0070 (murine mAb purified from hybridoma 27F16A1) (antibody, V domains shown) VH: EVQLVESGGDFVKPGGSLKLSCAASGFTFNNYGMSWVRQTPDKRLEWVAAISSGVTYTYYPDTVKGRFTISRDNAKNTLYLHMSSLKSEDTAMYYCGRHDDYGNHFDYWGQGTTLTVSS VL: DIVMTQSPSSLAMSLGQRVTMNCKSSQSLLNSHNQKNYLAWYQQKPGQSPKLLVYFASSRESGVPDRFIGSGSGTDFTLTISSVQAEDLADYFCQQHYSTPFTFGSGTKLEIKR	–	binds	binds

From patent US20170305994A1
